{"source": "patent US11180533", "about": "(dated 2021)", "experiment": "general procedure: Fmoc solid-phase peptide synthesis; Rink amide AM resin; HOBt/DIC"}
{"substance": "Cetrorelix trifluoroacetate salt", "values": [{"measurement": "final HPLC purity", "setting": "purification step, HPLC (fractions), TFA salt", "result": 98, "unit": "%"}, {"measurement": "step yield", "setting": "purification step, TFA salt", "result": 20, "unit": "%"}, {"measurement": "crude purity (method not given)", "setting": "whole synthesis, HPLC (fractions), scale of the general procedure 100 g of Rink Amide AM Resin, TFA salt", "result": 75, "unit": "%"}, {"measurement": "crude mass", "setting": "whole synthesis, TFA salt", "result": 80.0, "unit": "gms"}]}
{"substance": "Acetyl-D-3-(2″-naphtyl)-alanine-D-4-chlorophenylalanine-D-3-(3″-pyridyl)alanine-L-serine-L-tyrosine-D-citruline-L-leucine-L-arginine-L-proline-D-alanine-amide acetate salt", "values": [{"measurement": "final purity (method not given)", "setting": "purification step, HPLC (fractions), acetate salt", "result": 99.6, "unit": "%"}, {"measurement": "step yield", "setting": "purification step, acetate salt", "result": 85.0, "unit": "%"}]}
